{
  "source": "patent US10669268B2",
  "about": "“Bicyclic derivatives” (Hoffmann-La Roche Inc., priority 2012, dated 2020)",
  "molecular_target": "ATX (human His-tagged) (Homo sapiens (Human), UniProt Q13822)",
  "test": "Human ATX enzyme inhibition assay (fluorescence quenching, MR121 substrate)",
  "type": "biochemical",
  "settings": "30 nM ATX, 1 μM MR121 substrate, 30° C., pH 8.0",
  "note": "The match of structure and compound is tentative.",
  "data": [
    {"smiles": "O=C(/C=C/c1ccc(S(=O)(=O)C(F)(F)F)cc1)N1CC[C@@H]2CN(C(=O)c3ccc4[nH]nnc4c3)C[C@@H]2CC1", "values": [
      {"measurement": "IC50", "value": 15, "unit": "nM"}
    ]}
  ]
}
